Measured values reported in PMC5982776, “The novel anti-androgen candidate galeterone targets deubiquitinating enzymes, USP12 and USP46, to control prostate cancer growth and survival” (Oncotarget, 2018).
No constants are given. Whether binding was seen depends on the method and setting. Binding seen in cells or lysates may run through a third protein. Some binding calls cover weakened binding; strength is not graded here.

Protein sequences, listed by entry. Tags and fused reporters are not part of them. Lines headed by an entry give the natural chain unless they say otherwise; changes in a name come on top. Chains listed by the source or under a name are the forms on record and can include a tag or linker.
UniProt P10275: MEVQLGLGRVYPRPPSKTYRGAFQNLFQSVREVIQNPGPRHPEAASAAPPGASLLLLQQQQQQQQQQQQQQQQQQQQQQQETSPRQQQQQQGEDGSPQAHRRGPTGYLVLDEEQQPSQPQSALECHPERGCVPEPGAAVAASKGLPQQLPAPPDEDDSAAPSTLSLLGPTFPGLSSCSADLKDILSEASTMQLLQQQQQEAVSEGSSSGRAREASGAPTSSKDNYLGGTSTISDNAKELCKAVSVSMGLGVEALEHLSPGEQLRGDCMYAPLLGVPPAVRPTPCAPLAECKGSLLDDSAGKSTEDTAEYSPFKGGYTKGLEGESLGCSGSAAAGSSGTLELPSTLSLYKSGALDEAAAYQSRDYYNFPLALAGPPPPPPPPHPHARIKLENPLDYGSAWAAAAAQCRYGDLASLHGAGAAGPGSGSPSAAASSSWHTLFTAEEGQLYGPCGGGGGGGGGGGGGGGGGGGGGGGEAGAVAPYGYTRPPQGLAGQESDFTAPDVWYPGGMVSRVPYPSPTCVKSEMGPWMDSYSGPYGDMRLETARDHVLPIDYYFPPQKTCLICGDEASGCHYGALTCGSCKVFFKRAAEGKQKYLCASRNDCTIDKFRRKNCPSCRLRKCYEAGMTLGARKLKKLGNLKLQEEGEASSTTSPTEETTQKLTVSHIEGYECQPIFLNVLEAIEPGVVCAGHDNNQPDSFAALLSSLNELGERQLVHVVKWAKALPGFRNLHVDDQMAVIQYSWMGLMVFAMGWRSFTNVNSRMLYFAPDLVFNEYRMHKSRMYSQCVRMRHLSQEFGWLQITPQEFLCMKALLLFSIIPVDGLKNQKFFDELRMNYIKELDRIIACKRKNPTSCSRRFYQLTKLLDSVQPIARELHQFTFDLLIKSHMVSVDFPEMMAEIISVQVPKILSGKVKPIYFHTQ
AR V7 (P10275, form named): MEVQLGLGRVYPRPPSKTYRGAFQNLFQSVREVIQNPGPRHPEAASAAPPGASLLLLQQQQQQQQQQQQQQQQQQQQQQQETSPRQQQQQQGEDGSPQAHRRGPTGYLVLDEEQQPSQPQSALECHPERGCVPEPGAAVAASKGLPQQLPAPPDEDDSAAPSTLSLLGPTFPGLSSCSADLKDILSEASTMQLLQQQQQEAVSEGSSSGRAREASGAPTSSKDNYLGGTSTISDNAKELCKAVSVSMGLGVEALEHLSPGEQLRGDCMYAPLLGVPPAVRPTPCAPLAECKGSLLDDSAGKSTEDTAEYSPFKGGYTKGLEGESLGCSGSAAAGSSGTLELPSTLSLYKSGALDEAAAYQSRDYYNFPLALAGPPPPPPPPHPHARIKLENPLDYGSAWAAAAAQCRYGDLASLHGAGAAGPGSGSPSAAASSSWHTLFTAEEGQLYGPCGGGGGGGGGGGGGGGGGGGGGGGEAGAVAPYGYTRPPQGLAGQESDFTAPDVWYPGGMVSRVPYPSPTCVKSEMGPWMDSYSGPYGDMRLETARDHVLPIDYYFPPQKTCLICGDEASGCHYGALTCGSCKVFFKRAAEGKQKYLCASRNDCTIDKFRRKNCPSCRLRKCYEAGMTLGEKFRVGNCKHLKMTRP
UniProt O75317: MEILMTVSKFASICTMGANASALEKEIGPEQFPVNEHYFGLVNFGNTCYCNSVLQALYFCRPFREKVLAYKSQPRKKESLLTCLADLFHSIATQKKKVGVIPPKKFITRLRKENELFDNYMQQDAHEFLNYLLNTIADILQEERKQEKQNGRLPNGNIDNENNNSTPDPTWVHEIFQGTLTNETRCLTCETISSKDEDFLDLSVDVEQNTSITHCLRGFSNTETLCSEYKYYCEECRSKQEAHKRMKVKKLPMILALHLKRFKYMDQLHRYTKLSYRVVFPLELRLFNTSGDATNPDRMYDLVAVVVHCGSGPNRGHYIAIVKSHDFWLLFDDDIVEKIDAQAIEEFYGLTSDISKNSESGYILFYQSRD
UniProt P62068: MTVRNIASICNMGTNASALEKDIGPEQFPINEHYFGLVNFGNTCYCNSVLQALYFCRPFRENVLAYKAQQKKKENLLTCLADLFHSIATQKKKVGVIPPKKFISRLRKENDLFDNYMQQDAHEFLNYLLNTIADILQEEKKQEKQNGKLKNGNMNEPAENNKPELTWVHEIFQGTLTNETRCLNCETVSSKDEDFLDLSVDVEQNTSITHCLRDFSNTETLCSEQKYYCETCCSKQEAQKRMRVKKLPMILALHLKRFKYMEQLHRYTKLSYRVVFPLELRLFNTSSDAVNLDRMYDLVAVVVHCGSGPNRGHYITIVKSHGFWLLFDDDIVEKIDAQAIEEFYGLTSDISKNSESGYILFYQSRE

Assays:
[1] = target: AR V7 (UniProt P10275); assay: co-IP; plasmids overexpressed in COS-7 cells for 72 h; AR constructs immunoprecipitated from lysate (50 mM Tris pH 7.5, 150 mM NaCl, 1% Nonidet P-40) with 1 ug antibody for 16 h at 4 C, protein G-Sepharose; Western blotting
[2] = target: full-length androgen receptor (AR FL) (UniProt P10275); assay: as above

binding [1] | binding [2] | Substance
no binding | binds | USP12 (from UniProt O75317 1-370) (enzyme)
– | binds | USP46 (from UniProt P62068 1-366) (enzyme)
